# Earlier results, collected in patent US20160346291A1, “COMPOSITIONS AND THERAPEUTIC METHODS FOR ACCELERATED PLAQUE REGRESSION” (Resverlogix Corp, priority 2013, published 2016).
# At least one structure is not confirmed: it was looked up by name or label, or the drawing left a doubt.
# Test system: coronary atherosclerosis
# Settings: 2 years; pravastatin 40 mg daily, atorvastatin 80 mg daily; cited from earlier work
smiles,measurement,value
CC[C@H](C)C(=O)O[C@H]1C[C@H](O)C=C2C=C[C@H](C)[C@H](CC[C@@H](O)C[C@@H](O)CC(=O)O)[C@H]21 [pravastatin],median change in PAV,+1.6%
